# Test results taken from the supplement of paper PMC8090911.
# Structures can show the parent of a compound that is named as a salt. This is one part of the list. Repeats are few or missing, and single values can be far off.
# Test system: p95-ErbB2-MCF7
# Experiment: perinuclear lysosome accumulation (PNLA, size of LAMP2 puncta), robust Z-score vs plate median; higher = more perinuclear lysosome accumulation (reversal of invasive lysosome distribution)
# Details: 5 µM; 24 h
row,SMILES,perinuclear lysosome accumulation
1,O=C(O)c1cccnc1 [Niacin],-3.15
2,Cc1cccc(N(C)C(=S)Oc2ccc3ccccc3c2)c1 [Tolnaftate],0.569
3,O=c1[nH]c(=O)n([C@H]2C[C@H](O)[C@@H](CO)O2)cc1I [Idoxuridine],-0.294
4,CC1(C)O[C@@H]2C[C@H]3[C@@H]4C[C@H](F)C5=CC(=O)CC[C@]5(C)[C@H]4[C@@H](O)C[C@]3(C)[C@]2(C(=O)CO)O1 [Flurandrenolide],0.248
5,NNC(=O)c1ccncc1 [Isoniazid],-3.46
6,C[C@H](CCC(=O)O)[C@H]1CC[C@H]2[C@@H]3C(=O)C[C@@H]4CC(=O)CC[C@]4(C)[C@H]3CC(=O)[C@]12C [Dehydrocholic acid],-0.265
7,CCOC(=O)C1=C(C)NC(C)=C(C(=O)OC)C1c1cccc(Cl)c1Cl (stereo not drawn) [Felodipine],0.725
8,O=C1c2c(O)ccc(O)c2C(=O)c2c(NCCNCCO)ccc(NCCNCCO)c21 [Mitoxantrone dihydrochloride],0.68
9,O=C(NC(Cc1cc(=O)[nH]c2ccccc12)C(=O)O)c1ccc(Cl)cc1 (stereo not drawn) [Rebamipide],0.757
10,Nc1ncn(C2OC(CO)C(O)C2O)c(=O)n1 (stereo not drawn) [Azacytidine-5],-0.532
11,C[N+](C)(C)CCOC(N)=O [Carbachol],0.546
12,CC(C)(C)NC[C@H](O)COc1cccc2c1CCCC2=O [(-) -Levobunolol hydrochloride],-1.41
13,O=C(O)CCC(=O)c1ccc(-c2ccccc2)cc1 [Fenbufen],-0.0788
14,N[C@@H](Cc1ccc(O)c(O)c1)C(=O)O [Levodopa],0.816
15,CN1CCN2c3ccccc3Cc3ccccc3C2C1 (stereo not drawn) [Mianserine hydrochloride],0.113
16,CC(C)NNC(=O)c1ccncc1 [Iproniazide phosphate],0.344
17,CCN(CC)CCNC(=O)c1cc(Br)c(N)cc1OC [Bromopride],1.02
18,OC(CCN1CCCCC1)(c1ccccc1)c1ccccc1 [Pridinol methanesulfonate salt],-0.0216
19,OCCN1CCN(CC/C=C2/c3ccccc3Sc3ccc(Cl)cc32)CC1 [Zuclopenthixol hydrochloride],1.73
20,Nc1ccc(/N=N/c2ccccc2)c(N)n1 [Phenazopyridine hydrochloride],1.04
21,CN(C)CCOC(=O)C(c1ccccc1)C1(O)CCCC1 (stereo not drawn) [Cyclopentolate hydrochloride],0.961
22,CC1=CC(=O)C2=C(C)CC[C@@H]3[C@H](OC(=O)[C@H]3C)[C@@H]12 [Leucomisine],-0.17
23,CCC(=O)O[C@]1(C(=O)SCF)[C@H](C)C[C@H]2[C@@H]3C[C@H](F)C4=CC(=O)C=C[C@]4(C)[C@@]3(F)[C@@H](O)C[C@@]21C [Fluticasone propionate],-0.359
24,CC[N+](C)(CC)CCC[n+]1c(-c2ccccc2)c2cc(N)ccc2c2ccc(N)cc21 [Propidium iodide],1.06
25,O=C(O)c1ccccc1Nc1cccc(C(F)(F)F)c1 [Flufenamic acid],-0.146
26,Clc1ccc(C(c2ccccc2Cl)C(Cl)Cl)cc1 (stereo not drawn) [Mitotane],-0.488
27,O=C1O[C@H]([C@@H](O)CO)C(O)=C1O [Ascorbic acid],1.52

row,SMILES,perinuclear lysosome accumulation
1,Nc1ccc(C(=O)O)c(O)c1 [4-aminosalicylic acid],-1.04
2,O=C1Nc2ccc(Cl)cc2[C@@](C#CC2CC2)(C(F)(F)F)O1 [Efavirenz],0.0698
3,CC(=O)Oc1ccc(C(c2ccc(OC(C)=O)cc2)c2ccccn2)cc1 [Bisacodyl],-0.379
4,CCCc1nn(C)c2c(=O)[nH]c(-c3cc(S(=O)(=O)N4CCN(C)CC4)ccc3OCC)nc12 [Sildenafil],0.624
5,CCCNC(C)(C)COC(=O)c1ccccc1 [Meprylcaine hydrochloride],0.366
6,CCC1(C)CC(=O)NC1=O (stereo not drawn) [Ethosuximide],0.216
7,CC(NCCc1ccc(O)cc1)C(O)c1ccc(O)cc1 (stereo not drawn) [Ritodrine hydrochloride],-0.0937
8,C[N+](C)(CCOc1ccccc1)Cc1ccccc1.O=C([O-])c1cc2ccccc2cc1O [Bephenium hydroxynaphthoate],1.04
9,CCc1nn(CCCN2CCN(c3cccc(Cl)c3)CC2)c(=O)n1CCOc1ccccc1 [Nefazodone HCl],1.83
10,Cc1c(OCC(F)(F)F)ccnc1C[S+]([O-])c1nc2ccccc2[nH]1 (stereo not drawn) [Lansoprazole],-0.64
11,Cn1c(=O)c2c(ncn2C)n(C)c1=O [Caffeine],0.638
12,COC(=O)Nc1nc2cc(C(=O)c3ccc(F)cc3)ccc2[nH]1 [Flubendazol],-1.99
13,COC1=CC(=O)C[C@@H](C)[C@]12Oc1c(Cl)c(OC)cc(OC)c1C2=O [Griseofulvin],1.85
14,COc1cc(N)c(Cl)cc1C(=O)NC1CCN(CCCOc2ccc(F)cc2)CC1OC (stereo not drawn) [Cisapride],0.265
15,CN(C)CCC(c1ccc(Cl)cc1)c1ccccn1 (stereo not drawn) [Chlorpheniramine maleate],-0.589
16,CCCC(CCC)C(=O)O [Valproic acid],-0.35
17,CN(C)CCCC1(c2ccc(F)cc2)OCc2cc(C#N)ccc21 (stereo not drawn) [Citalopram Hydrobromide],0.645
18,O=C(O)CNC(=O)C(CS)Cc1ccccc1 (stereo not drawn) [Thiorphan],-1.55
19,CC(CN1c2ccccc2Sc2ccccc21)N(C)C (stereo not drawn) [Promethazine hydrochloride],0.912
20,NS(=O)(=O)c1cc2c(cc1C(F)(F)F)NC(Cc1ccccc1)NS2(=O)=O (stereo not drawn) [Bendroflumethiazide],0.193
21,O=C(c1ccc(OCCN2CCCCC2)cc1)c1c(-c2ccc(O)cc2)sc2cc(O)ccc12 [Raloxifene hydrochloride],-1.61
22,CCn1cc(C(=O)O)c(=O)c2cc(F)c(N3CCNCC3)cc21 [Norfloxacin],0.751
23,CCOC(=O)C1=C(C)NC(C)=C(C(=O)OC)C1c1cccc([N+](=O)[O-])c1 (stereo not drawn) [Nitrendipine],-0.402
24,CC1CCc2cc(F)cc3c(=O)c(C(=O)O)cn1c23 (stereo not drawn) [Flumequine],0.094
25,CCCCOc1ccc(OCCCN2CCOCC2)cc1 [Pramoxine hydrochloride],1.27
26,COc1ccccc1OCCNCC(O)COc1cccc2[nH]c3ccccc3c12 (stereo not drawn) [Carvedilol],1.16
